# Results reported in PubChem BioAssay AID504834 (National Center for Advancing Translational Sciences (NCATS), 2011).
# In all, about 320,000 compounds went through this assay and about 22,000 (6.9%) were called active. This list was built around the results that the source calls inconclusive (neither active nor inactive); the mix of calls is not that of the screen. Calls come from the whole dose curve; as a rule, active = well fitted inhibition curve with a large enough effect; inconclusive = small, poorly fitted or top-dose-only effect, or another doubt; inactive = no such curve, though single readings can be large or run the other way. Where the call is inconclusive, the potency comes from a doubtful curve fit.
# Test: Primary qHTS for delayed death inhibitors of the malarial parasite plastid, 96 hour incubation
# Settings: P. falciparum luciferase reporter growth; series mostly up to 28.7 µM
# Procedure, shortened: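 Readout is luminescence from an integrated firefly luciferase in P. falciparum. Red cells, 2% hematocrit and 0.05% parasitemia final, were cultured with compound through two parasite generations (96 hours) at 37 C, 5% CO2.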
# % is set by controls: 0 for no effect and ±100 for the full control effect; potency is the fitted concentration of half-maximal effect.
SMILES,Potency,"activity change, negative = inhibition"
COc1ccc(OC)c(NC(=O)CSc2nc3nc(C)cc(C)n3n2)c1,"inconclusive: 13.1 µM [inhibitor, single point]",
C/C=C\C=C/C(=O)Nc1cccc(C2=NOC3(C2)C[C@H](C(N)=O)N(C(=O)c2ccc(OC)cc2)C3)c1 (some centres undefined),"inconclusive: 18.5 µM [inhibitor, single point]",
Cc1cc(C[n+]2cc(Cl)ccc2N)c2ncccc2c1,"inconclusive: 18.5 µM [inhibitor, single point]",
O=c1c2ccccc2nc(/C=C/c2ccc3c(c2)OCO3)n1-c1ccccc1,active: 10.4 µM,
CCC(C)c1ccc(NC(=S)NC2CCN(Cc3ccccc3)CC2)cc1 (centres undefined),"inconclusive: 9.28 µM [inhibitor, single point]",
COCCNC(=S)N1CCC(c2nc(-c3ccc(N(C)C)cc3)no2)CC1,inactive,
Cc1cc(C(=O)CSc2nnc(Nc3ccccc3)s2)c(C)n1CC1CCCO1 (centres undefined),,inactive: 10.8% [at 5.75 µM]
c1ccc2c(c1)[nH]c1c(N3CCC4(CC3)OCCO4)ncnc12,"inconclusive: 11.7 µM [inhibitor, partial curve, poor fit]",
O=C(COC(=O)CCNS(=O)(=O)c1ccc(Cl)cc1)NCc1ccco1,active: 2.08 µM,
Cc1ccc(S(=O)(=O)N2CCN(C(=O)COC(=O)/C=C/c3ccccc3)CC2)c(C)c1,inactive,
COC(=O)c1c(NC(=O)CSc2nnc(-c3cccnc3)n2Cc2ccco2)sc(C)c1C,inactive,
CC/C(C)=C1\SC(N2CCN(c3cccc(C(F)(F)F)c3)CC2)=NC1=O,inactive,
CCCCNC(=O)CSc1nc2ccccc2c(=O)n1CC1COc2ccccc2O1 (centres undefined),"inconclusive: 0.928 µM [inhibitor, full curve]",
O=C(c1cccc(Cl)c1)N1CCCC(c2ccc(Cl)cc2)=N1,active: 3.7 µM,
Cc1cc(C2=NNC(=NCCc3ccccc3)SC2)c(C)n1-c1c(C)n(C)n(-c2ccccc2)c1=O,"inconclusive: 7.38 µM [inhibitor, partial curve, poor fit]",
Cc1cc(C(=O)COC(=O)CC2Sc3ccccc3NC2=O)c(C)n1-c1ccc(Br)cc1 (centres undefined),"inconclusive: 18.5 µM [inhibitor, single point]",
Cc1nc(-c2ccccn2)nc(SCC(=O)c2ccc(F)cc2)c1Cl,"inconclusive: 6.57 µM [inhibitor, partial curve]",
Cc1ncc(CSc2ccc(Cl)cc2)c(CO)c1O,inactive,
CC(C)C(NS(=O)(=O)c1c(Cl)cccc1Cl)C(=O)OCC(=O)c1c[nH]c2ccccc12 (centres undefined),active: 4.65 µM,
COc1cccc(-c2cccc(NC(=O)C3CCN(C4CCC4)CC3)c2)c1,inactive,
CCCCNC(=S)N/N=C/c1ccc(OCC(=O)Nc2c(C)cc(C)cc2C)c(OC)c1,inactive,
COC(=O)[C@H](C)NC(=O)Nc1cccc(C)c1,inactive,
O=C(NCCc1nccs1)C1CCC(=O)N(CCc2ccc(Cl)cc2)C1 (centres undefined),inactive,
CCOC(=O)C/C(N)=N/N(C)c1ncc(C(F)(F)F)cc1Cl,inactive,
COc1cc(NC(=O)CCS(=O)(=O)c2ccc3c(c2)oc(=O)n3C)cc(OC)c1,active: 1.47 µM,

# Given with tabs: 4 of the compounds above.
SMILES	Potency	activity change, negative = inhibition
CCCCNC(=S)N/N=C/c1ccc(OCC(=O)Nc2c(C)cc(C)cc2C)c(OC)c1	inactive	
COC(=O)[C@H](C)NC(=O)Nc1cccc(C)c1	inactive	
O=C(NCCc1nccs1)C1CCC(=O)N(CCc2ccc(Cl)cc2)C1 (centres undefined)	inactive	
CCOC(=O)C/C(N)=N/N(C)c1ncc(C(F)(F)F)cc1Cl	inactive	

# (listing goes on)

SMILES,Potency,"activity change, negative = inhibition"
O=C(O)c1ccc(O)c2ncccc12,"inconclusive: 13.1 µM [inhibitor, single point]",
CC(C)(C)C(=O)CN1C(=O)NC2(CCCc3ccccc32)C1=O (centres undefined),inactive,
COc1ccc(CNC(=O)CN(Cc2ccco2)C(=O)CNS(=O)(=O)c2ccc(C)cc2)cc1,"inconclusive: 10.4 µM [inhibitor, single point]",
S=c1[nH]nc(-c2ccco2)n1/N=C/C=C/c1ccccc1,inactive,
Cc1csc(SCC(=O)Nc2ccccn2)n1,"inconclusive: 0.465 µM [inhibitor, partial curve, poor fit]",
COC1CCN(C(=O)c2ccc3oc(C(C)C)nc3c2)CC1,inactive,
Cc1ccccc1C(=O)NC1CC(C)(C)NC(C)(C)C1,"inconclusive: 10.4 µM [inhibitor, single point]",
Nc1nnnn1/N=C/c1ccc(F)cc1,inactive,
CC1(CC(=O)N/N=C/c2ccc(-c3cccc(C(F)(F)F)c3)o2)OCCO1,"inconclusive: 16.5 µM [inhibitor, single point]",
O=S(=O)(c1ccccc1)c1nc(-c2ccco2)oc1Nc1ccccc1,"inconclusive: 5.22 µM [inhibitor, single point]",
COc1ccc(Nc2nc(N)c([N+](=O)[O-])c(N3CCN(C)CC3)n2)cc1,"inconclusive: 18.5 µM [inhibitor, single point]",
Cc1cc(/C=N/n2cnnc2)c(C)n1-c1ccc(OCc2ccc(F)cc2)cc1,"inconclusive: 18.5 µM [inhibitor, single point]",
COc1ccc(-c2csc(NC3CCCCC3)n2)c(OC)c1,"inconclusive: 13.1 µM [inhibitor, partial curve]",
COC(=O)c1ccccc1NC(=O)CCC(=O)N1CC(C)Oc2ccc(C)cc21 (centres undefined),inactive,
O=C(COc1ccc2ccc(=O)oc2c1)NCCCN1CCCC1=O,inactive,
Cc1nc2sc(C(c3ccccc3)N3CCOCC3)c(O)n2n1 (centres undefined),inactive,
CCOc1cc(S(=O)(=O)NC2CCCC2)ccc1Cl,inactive,
Cc1cccc(N2N=C(C(=O)O)CCC2=O)c1,"inconclusive: 18.5 µM [inhibitor, single point]",
O=C(O)C1C2C=CC(C2)C1C(=O)Nc1ccc(Cl)c(Cl)c1 (centres undefined),"inconclusive: 10.4 µM [inhibitor, single point]",
Cc1c(Cl)cccc1NC(=S)NCc1ccccc1Cl,inactive,
CCC(C)[C@H](NC(=O)NCc1ccc(Cl)cc1)C(=O)OC (some centres undefined),"inconclusive: 18.5 µM [inhibitor, single point]",
CCOc1ccc(C(=O)CN2C(=O)NC3(CCCCCC3)C2=O)cc1,inactive,
O=C(c1ccco1)N1CCN(c2ncnc3c2[nH]c2ccc(Cl)cc23)CC1,"inconclusive: 11.7 µM [inhibitor, partial curve, poor fit]",
COC(=O)C1=CN(Cc2ccc(OC)c(OC)c2)C=C(C(=O)OC)C1c1ccc(O)cc1,inactive,
